In patent US20220315574A1, “Beta-Arrestin-Modulating Compounds and Methods of Using Same” (Duke University, priority 2019, published 2022):
Some of these results come from one statement about several compounds together.

Protein sequences, listed by entry. Tags and fused reporters are not part of them.
UniProt P32121, whole entry: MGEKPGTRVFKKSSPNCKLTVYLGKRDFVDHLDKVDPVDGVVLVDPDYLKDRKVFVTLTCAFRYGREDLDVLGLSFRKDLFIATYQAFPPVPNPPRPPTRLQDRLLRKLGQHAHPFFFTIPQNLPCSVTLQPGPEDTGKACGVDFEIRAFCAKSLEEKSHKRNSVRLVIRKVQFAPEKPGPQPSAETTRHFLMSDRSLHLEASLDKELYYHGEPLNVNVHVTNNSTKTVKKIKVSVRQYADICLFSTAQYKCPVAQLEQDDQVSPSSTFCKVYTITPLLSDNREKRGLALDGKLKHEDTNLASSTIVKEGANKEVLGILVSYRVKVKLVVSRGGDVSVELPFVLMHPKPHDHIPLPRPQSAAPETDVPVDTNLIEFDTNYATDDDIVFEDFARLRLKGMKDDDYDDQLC

Molecular target: T1, βarr2 recruitment to agonist-activated β2V2R (Homo sapiens, UniProt P32121)
T1 construct: host or cells: U2OS
Assay: DiscoveRx PathHunter β-arrestin recruitment assay in U2OS cells
Assay type: cell-based
Conditions: calculated for the two assays: βarr recruitment (50 μM) and receptor-βarr endocytosis (25 μM)
Protocol: β-arrestin recruitment to the agonist-activated receptor (02V2R) was measured using the DiscoveRx PathHunter β-arrestin assay (Ahn, S. et al. Allosteric “beta-blocker” isolated from a DNA-encoded small molecule library. Proc Natl Acad Sci U SA 114, 1708-1713, doi:10.1073/pnas.1620645114 (2017)). […] Agonist-stimulated recruitment of βarr2 to the receptor results in the formation of functionally active β-gal enzyme. Addition of substrate generates a chemiluminescence signal directly correlated to the extent of recruitment. U2OS cells co-expressing β2V2R and βarr2 were plated in 96-well clear-bottomed plates at a density of 25,000 cells per well (80 μL per well), 24 hours prior to compound treatment. On the day of experiment, cells were first treated with compound or vehicle for 30 min, followed by agonist (Iso) stimulation for 60 min at 37° C. Cells were then treated with PathHunter™ detection reagents for 90 min at 37° C., and luminescence signals were measured using a CLARIOstar microplate reader (BMG Labtech Inc., Cary, N.C.).

**Q.** With C=C1C(=O)OC2CC3(C)OC3CC/C(C)=C\C(OC(C)=O)C12 (stereo not shown) [Cmpd-64, [(8Z)-3,8-dimethyl-12-methylidene-13-oxo-4,14-dioxatricyclo[9.3.0.03,5]tetradec-8-en-10-yl] acetate] as the molecule, how does the “percent inhibition of βarr activity” value read?
**A.** The value was ≥ 40%.
